# According to the supplement of paper PMC10849652:
# The chains behind the UniProt entries cited, without tags or fusion partners. Where a name states a change or a piece, a line headed by the entry shows the natural chain unless it says otherwise.
# UniProt Q9H1I8: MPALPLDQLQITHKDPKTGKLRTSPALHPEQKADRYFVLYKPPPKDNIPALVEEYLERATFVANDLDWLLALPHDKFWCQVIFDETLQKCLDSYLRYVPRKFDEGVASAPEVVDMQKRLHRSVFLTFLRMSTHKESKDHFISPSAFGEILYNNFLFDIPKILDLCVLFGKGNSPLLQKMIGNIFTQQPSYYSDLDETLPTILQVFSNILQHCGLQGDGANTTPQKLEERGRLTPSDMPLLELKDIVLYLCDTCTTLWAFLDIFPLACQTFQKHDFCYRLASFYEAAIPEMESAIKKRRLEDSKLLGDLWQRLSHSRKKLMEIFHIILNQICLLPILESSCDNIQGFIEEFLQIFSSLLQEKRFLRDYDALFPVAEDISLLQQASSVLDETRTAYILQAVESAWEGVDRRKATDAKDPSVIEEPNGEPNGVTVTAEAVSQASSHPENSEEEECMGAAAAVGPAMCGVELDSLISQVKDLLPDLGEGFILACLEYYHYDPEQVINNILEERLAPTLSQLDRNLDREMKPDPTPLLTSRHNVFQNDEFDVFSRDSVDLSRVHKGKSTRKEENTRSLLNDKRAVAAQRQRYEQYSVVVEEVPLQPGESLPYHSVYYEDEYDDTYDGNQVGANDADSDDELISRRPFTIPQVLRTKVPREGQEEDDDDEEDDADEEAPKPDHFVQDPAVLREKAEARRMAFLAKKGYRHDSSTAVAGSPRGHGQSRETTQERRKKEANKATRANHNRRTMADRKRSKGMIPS
# UniProt P18859: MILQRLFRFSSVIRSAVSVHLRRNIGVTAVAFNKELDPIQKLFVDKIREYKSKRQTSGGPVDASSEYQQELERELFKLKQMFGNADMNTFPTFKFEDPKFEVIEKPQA
# UniProt P56211: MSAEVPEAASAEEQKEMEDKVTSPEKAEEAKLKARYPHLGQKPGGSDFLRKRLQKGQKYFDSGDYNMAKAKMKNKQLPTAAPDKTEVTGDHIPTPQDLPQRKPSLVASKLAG
# UniProt Q8N6S5: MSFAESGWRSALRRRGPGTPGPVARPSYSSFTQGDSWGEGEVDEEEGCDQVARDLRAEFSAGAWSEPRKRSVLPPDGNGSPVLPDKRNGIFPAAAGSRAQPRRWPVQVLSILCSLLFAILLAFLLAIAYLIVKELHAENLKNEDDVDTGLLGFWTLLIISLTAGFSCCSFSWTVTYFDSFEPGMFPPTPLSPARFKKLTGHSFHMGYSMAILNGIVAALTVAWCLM
# UniProt O94817, whole entry, looked up: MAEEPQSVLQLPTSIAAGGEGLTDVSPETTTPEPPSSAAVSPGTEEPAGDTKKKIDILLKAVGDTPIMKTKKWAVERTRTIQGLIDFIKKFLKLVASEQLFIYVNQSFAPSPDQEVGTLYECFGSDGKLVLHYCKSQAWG
# UniProt Q9UBL3, whole entry, looked up: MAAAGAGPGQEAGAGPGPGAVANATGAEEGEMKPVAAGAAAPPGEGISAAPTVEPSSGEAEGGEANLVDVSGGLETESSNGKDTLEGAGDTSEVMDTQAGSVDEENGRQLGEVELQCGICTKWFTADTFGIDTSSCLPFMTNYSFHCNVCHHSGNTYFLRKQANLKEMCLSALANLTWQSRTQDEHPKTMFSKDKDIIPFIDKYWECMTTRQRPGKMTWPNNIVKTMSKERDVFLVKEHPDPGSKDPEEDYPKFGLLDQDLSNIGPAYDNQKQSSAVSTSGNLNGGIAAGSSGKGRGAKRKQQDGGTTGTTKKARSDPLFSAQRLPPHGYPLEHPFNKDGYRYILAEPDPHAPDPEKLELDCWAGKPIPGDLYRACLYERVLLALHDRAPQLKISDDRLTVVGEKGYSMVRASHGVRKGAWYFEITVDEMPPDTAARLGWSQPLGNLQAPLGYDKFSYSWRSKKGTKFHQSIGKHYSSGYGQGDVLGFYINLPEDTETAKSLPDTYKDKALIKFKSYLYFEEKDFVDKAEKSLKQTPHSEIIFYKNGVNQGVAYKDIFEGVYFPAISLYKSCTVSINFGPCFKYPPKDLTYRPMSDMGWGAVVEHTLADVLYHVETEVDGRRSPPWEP
# UniProt Q8N5I2: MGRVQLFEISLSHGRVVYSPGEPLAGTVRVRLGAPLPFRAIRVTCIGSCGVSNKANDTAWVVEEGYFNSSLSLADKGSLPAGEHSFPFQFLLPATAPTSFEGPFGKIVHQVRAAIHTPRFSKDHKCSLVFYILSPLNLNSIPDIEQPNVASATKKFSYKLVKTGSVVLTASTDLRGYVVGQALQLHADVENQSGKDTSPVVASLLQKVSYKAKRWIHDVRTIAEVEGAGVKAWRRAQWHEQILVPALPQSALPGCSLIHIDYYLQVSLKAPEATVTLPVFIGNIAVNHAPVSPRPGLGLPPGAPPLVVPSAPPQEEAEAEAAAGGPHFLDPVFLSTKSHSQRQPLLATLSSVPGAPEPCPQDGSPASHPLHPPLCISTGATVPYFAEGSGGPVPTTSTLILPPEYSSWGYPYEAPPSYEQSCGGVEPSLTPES
# UniProt P54709, whole entry, looked up: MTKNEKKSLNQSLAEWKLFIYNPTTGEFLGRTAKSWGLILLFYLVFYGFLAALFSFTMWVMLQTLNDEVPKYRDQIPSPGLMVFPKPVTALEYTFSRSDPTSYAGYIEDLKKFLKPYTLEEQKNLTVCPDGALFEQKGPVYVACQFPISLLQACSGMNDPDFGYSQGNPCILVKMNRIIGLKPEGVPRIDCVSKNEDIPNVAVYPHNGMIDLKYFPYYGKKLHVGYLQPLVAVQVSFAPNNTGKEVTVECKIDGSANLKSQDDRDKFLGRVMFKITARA
# UniProt P16615: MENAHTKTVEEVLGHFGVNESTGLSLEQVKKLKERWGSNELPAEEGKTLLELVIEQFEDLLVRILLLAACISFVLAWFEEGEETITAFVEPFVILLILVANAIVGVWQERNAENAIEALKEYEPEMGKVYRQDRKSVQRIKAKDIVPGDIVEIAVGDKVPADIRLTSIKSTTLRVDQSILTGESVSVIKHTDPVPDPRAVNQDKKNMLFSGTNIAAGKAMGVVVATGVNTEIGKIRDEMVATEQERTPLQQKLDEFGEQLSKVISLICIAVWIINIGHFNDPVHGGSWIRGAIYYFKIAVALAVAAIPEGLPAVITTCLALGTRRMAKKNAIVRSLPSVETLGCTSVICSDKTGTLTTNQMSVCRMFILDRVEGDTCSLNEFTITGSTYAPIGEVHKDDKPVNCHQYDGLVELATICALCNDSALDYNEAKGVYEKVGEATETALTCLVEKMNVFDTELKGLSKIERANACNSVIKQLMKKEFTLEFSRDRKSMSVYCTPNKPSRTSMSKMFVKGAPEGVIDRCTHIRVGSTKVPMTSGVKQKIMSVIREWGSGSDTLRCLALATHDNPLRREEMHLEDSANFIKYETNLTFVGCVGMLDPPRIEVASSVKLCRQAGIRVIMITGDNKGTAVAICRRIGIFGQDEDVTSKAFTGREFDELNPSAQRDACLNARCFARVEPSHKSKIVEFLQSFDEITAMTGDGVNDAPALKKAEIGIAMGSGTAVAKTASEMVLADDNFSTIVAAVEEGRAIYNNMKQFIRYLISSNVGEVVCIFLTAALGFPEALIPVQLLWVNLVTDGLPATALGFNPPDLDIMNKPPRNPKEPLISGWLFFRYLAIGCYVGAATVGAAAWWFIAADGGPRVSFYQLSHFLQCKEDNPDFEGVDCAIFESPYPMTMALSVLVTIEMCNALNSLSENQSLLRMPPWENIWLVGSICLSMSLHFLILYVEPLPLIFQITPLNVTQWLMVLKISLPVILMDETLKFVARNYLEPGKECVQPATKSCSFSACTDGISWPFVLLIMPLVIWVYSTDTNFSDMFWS
# UniProt Q9Y6H3: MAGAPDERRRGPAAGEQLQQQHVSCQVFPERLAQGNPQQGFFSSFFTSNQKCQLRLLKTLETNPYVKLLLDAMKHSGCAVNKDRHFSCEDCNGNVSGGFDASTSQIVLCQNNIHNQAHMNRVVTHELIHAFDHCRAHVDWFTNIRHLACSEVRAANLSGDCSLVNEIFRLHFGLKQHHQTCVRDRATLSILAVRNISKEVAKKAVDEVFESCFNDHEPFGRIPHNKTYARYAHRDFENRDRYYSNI
# UniProt Q6DD88: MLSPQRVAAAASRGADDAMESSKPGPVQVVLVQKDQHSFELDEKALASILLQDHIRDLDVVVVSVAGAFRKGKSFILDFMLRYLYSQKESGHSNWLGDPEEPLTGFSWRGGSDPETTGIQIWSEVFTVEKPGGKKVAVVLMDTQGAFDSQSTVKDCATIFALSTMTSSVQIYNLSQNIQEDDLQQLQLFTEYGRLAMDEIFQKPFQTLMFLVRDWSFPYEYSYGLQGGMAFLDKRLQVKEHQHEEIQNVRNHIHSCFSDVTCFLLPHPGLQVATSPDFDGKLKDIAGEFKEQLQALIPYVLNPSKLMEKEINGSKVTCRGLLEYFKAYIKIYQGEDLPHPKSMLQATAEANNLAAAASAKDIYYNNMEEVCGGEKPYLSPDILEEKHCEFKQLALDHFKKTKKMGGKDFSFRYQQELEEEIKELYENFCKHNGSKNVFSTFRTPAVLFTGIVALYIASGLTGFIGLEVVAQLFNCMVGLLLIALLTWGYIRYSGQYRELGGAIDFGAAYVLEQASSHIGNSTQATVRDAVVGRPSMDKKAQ
# UniProt O75964: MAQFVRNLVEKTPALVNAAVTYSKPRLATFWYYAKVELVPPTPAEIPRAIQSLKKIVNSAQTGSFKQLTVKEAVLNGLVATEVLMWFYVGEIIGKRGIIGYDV
# UniProt Q9NVP2, whole entry, looked up: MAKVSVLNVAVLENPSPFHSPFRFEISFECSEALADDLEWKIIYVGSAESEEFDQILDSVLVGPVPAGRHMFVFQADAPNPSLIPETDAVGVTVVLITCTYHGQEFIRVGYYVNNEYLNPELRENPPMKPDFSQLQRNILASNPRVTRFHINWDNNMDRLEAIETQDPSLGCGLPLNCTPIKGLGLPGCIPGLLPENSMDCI
# UniProt Q9Y689: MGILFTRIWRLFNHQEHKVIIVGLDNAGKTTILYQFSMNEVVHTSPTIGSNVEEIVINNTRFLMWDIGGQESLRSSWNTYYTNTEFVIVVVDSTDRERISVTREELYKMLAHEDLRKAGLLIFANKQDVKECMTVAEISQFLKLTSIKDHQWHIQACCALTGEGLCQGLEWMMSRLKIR
# UniProt Q9BSB4: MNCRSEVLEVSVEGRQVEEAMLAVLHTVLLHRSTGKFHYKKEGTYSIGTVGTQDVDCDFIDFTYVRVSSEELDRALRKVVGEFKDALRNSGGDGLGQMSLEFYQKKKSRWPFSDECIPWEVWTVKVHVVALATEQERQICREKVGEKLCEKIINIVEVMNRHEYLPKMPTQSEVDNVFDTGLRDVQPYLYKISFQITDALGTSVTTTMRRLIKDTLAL
# UniProt P27449, whole entry, looked up: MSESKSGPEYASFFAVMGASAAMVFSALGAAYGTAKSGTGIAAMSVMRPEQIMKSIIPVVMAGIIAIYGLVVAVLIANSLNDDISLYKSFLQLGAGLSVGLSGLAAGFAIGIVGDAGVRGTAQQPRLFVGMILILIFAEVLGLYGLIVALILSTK
# UniProt Q9UII2: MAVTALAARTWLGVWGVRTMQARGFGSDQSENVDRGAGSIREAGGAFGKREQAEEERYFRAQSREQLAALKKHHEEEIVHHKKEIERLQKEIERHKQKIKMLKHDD
# UniProt P15289: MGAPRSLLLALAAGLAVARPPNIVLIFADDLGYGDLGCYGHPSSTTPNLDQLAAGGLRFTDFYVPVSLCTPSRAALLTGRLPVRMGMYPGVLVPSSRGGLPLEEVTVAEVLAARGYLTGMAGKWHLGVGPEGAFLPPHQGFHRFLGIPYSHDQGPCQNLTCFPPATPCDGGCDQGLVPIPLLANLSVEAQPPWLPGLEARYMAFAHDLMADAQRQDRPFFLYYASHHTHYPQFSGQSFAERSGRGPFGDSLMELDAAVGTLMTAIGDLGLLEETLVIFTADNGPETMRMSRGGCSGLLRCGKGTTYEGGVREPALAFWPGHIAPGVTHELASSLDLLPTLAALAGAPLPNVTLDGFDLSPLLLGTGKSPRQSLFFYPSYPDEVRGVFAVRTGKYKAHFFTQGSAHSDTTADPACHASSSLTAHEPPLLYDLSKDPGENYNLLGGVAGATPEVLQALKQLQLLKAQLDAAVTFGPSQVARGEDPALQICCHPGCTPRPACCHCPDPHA
# UniProt Q8NHH9: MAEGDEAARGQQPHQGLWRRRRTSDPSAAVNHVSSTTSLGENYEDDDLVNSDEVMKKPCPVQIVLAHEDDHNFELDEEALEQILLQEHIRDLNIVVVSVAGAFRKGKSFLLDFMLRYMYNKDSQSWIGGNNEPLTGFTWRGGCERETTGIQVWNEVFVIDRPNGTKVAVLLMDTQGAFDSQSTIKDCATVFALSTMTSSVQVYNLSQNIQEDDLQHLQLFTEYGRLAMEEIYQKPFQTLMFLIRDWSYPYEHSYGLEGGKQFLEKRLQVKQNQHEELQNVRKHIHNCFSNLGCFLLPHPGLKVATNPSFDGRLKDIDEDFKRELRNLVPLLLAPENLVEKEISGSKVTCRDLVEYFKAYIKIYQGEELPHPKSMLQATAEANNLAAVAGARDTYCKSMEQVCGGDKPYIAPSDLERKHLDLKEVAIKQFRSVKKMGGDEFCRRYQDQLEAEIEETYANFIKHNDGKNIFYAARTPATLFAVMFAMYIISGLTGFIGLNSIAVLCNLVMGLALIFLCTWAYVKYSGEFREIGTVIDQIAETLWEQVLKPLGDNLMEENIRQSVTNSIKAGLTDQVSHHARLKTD
# This is one part of the list.
# What was measured:
# Assay in all cases: log2 fold change, soluble protein after heating vs DMSO (PISA); higher = thermal stabilisation; K562 cells, 10 uM, 30 min; active = over 0.2 and 3.5 SD of the protein, either way, in both replicates (recomputed)
# saracatinib = compound: CN1CCN(CCOc2cc(OC3CCOCC3)c3c(Nc4c(Cl)ccc5c4OCO5)ncnc3c2)CC1 [saracatinib]
# Procedure, shortened: (§1)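 Aliquots of K562 cells (2×10^6 cells/mL) treated with 10 μM compound for 30 min were heated for 3 min over 48°C-58°C. After pooling and extraction in PBS with 0.5% NP-40 at 4°C, soluble protein from a 21,000xg, 90 min spin was quantified by TMTpro 16plex LC-MS/MS with channel sums equalised. Thermal stability is expressed against control samples, from duplicates, as a log2 fold change.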
# sotrastaurin = compound: CN1CCN(c2nc(C3=C(c4c[nH]c5ccccc45)C(=O)NC3=O)c3ccccc3n2)CC1 [sotrastaurin]
# Procedure, shortened: as §1
# alvocidib = compound: CN1CC[C@H](c2c(O)cc(O)c3c(=O)cc(-c4ccccc4Cl)oc23)[C@H](O)C1 [alvocidib]
# Procedure, shortened: as §1
# [1] = compound: CNC(=O)C1=CC=CC=C1NC2=NC(=NC=C2Cl)NC3=C(C=C(C=C3)N4CCOCC4)OC
# Procedure, shortened: as §1
# defactinib = compound: CNC(=O)c1ccc(Nc2ncc(C(F)(F)F)c(NCc3nccnc3N(C)S(C)(=O)=O)n2)cc1 [defactinib]
# Procedure, shortened: as §1
# rucaparib = compound: CNCc1ccc(-c2[nH]c3cc(F)cc4c3c2CCNC4=O)cc1 [rucaparib]
# Procedure, shortened: as §1
# [2] = compound: CNc1nc(-c2ccc3c(N)n[nH]c3c2)cc(N2C[C@@H](C(=O)NC3CCCCC3)CC[C@H]2C)n1
# Procedure, shortened: as §1
# encorafenib = compound: COC(=O)N[C@@H](C)CNc1nccc(-c2cn(C(C)C)nc2-c2cc(Cl)cc(NS(C)(=O)=O)c2F)n1 [encorafenib]
# Procedure, shortened: as §1
# [3] = compound: COC(=O)[C@H](CCSC)NC(=O)C1=C(C=C(C=C1)NC[C@H](CS)N)C2=CC=CC=C2
# Procedure, shortened: as §1
# Tubastatin A = compound: CN1CCc2c(c3ccccc3n2Cc2ccc(C(=O)NO)cc2)C1 [Tubastatin A]
# Procedure, shortened: as §1
Target,log2 fold change (saracatinib),log2 fold change (sotrastaurin),log2 fold change (alvocidib),log2 fold change [1],log2 fold change (defactinib),log2 fold change (rucaparib),log2 fold change [2],log2 fold change (encorafenib),log2 fold change [3],log2 fold change (Tubastatin A)
ASCC2 (UniProt Q9H1I8),inactive: -0.094,inactive: -0.275,inactive: 0.243,inactive: -0.124,inactive: 0.104,inactive: 0.097,inactive: 0.045,inactive: -0.071,inactive: 0.24,
ATIC (UniProt P31939),inactive: -0.013,inactive: -0.001,,inactive: 0.087,inactive: -0.059,inactive: -0.05,inactive: 0.044,inactive: -0.011,inactive: -0.028,inactive: 0.008
ATP7B (UniProt P35670),inactive: 0.069,inactive: 0.005,,inactive: -0.019,inactive: -0.011,inactive: -0.044,inactive: 0.005,inactive: 0.052,inactive: -0.021,inactive: 0.01
ATP5PF isoform 2 (UniProt P18859),inactive: -0.101,inactive: 0.057,inactive: -0.019,inactive: 0.046,inactive: -0.004,inactive: 0.103,inactive: -0.054,inactive: -0.046,inactive: -0.014,inactive: 0.031
ARPP19 (UniProt P56211),inactive: -0.002,inactive: 0.01,,inactive: -0.015,inactive: -0.089,inactive: -0.05,inactive: -0.056,inactive: -0.016,inactive: 0.002,inactive: -0.047
ASNS (UniProt P08243),inactive: 0.041,inactive: 0.016,,inactive: -0.036,inactive: -0.018,inactive: -0.017,inactive: -0.015,inactive: -0.009,inactive: -0.001,inactive: -0.002
ATP2A3 isoform 2 (UniProt Q93084),inactive: 0.058,inactive: -0.007,,inactive: -0.026,inactive: -0.021,inactive: -0.04,inactive: 0.033,inactive: 0.027,inactive: 0.002,inactive: -0.022
ARL13B (UniProt Q3SXY8),inactive: 0.091,inactive: 0.16,,inactive: -0.021,inactive: 0.035,inactive: 0.092,inactive: 0.004,inactive: 0.049,inactive: -0.039,inactive: -0.104
ARL6IP6 (UniProt Q8N6S5),inactive: 0.192,inactive: 0.005,,inactive: -0.099,inactive: -0.053,inactive: 0.009,inactive: 0.004,inactive: 0.015,inactive: -0.035,inactive: -0.014
ARMC8 (UniProt Q8IUR7),inactive: -0.05,inactive: -0.07,,inactive: 0.016,inactive: -0.005,inactive: 0.017,inactive: 0.228,inactive: 0.026,inactive: -0.031,inactive: 0.009
ATG12 (UniProt O94817),inactive: -0.013,inactive: -0.012,inactive: -0.063,inactive: 0.039,inactive: -0.007,inactive: 0.05,inactive: -0.011,inactive: -0.004,inactive: -0.017,inactive: 0.043
ASH2L (UniProt Q9UBL3),inactive: 0.023,inactive: -0.025,,inactive: 0.023,inactive: -0.12,inactive: 0.012,inactive: -0.036,inactive: 0.037,inactive: -0.009,inactive: 0.052
ARRDC1 (UniProt Q8N5I2),inactive: 0.17,inactive: -0.026,,inactive: -0.06,inactive: -0.046,inactive: 0.075,inactive: -0.02,inactive: -0.01,inactive: -0.006,inactive: 0.004
ATG9A (UniProt Q7Z3C6),inactive: 0.016,inactive: -0.084,,inactive: -0.029,inactive: -0.09,inactive: -0.008,inactive: -0.052,inactive: 0.055,inactive: -0.013,inactive: 0.067
ATP11A (UniProt P98196),inactive: 0.082,inactive: 0.094,,inactive: -0.002,inactive: -0.093,inactive: 0.192,inactive: 0.044,inactive: 0.008,inactive: 0.017,inactive: 0.007
ATP1B3 (UniProt P54709),inactive: -0.019,inactive: 0.084,,inactive: 0.004,inactive: -0.047,inactive: -0.033,inactive: 0.016,inactive: -0.023,inactive: 0.034,inactive: -0.014
ATP2A2 (UniProt P16615),inactive: 0.03,inactive: 0.012,inactive: -0.053,inactive: 0.006,inactive: -0.031,inactive: -0.034,inactive: 0.1,inactive: 0.035,inactive: -0.016,inactive: -0.044
ASS1 (UniProt P00966),inactive: 0.062,inactive: 0.088,,inactive: -0.047,inactive: -0.007,inactive: 0.11,inactive: -0.122,inactive: -0.018,inactive: 0.045,inactive: -0.183
ATP23 (UniProt Q9Y6H3),inactive: 0.029,inactive: 0.04,,inactive: 0.055,inactive: 0.028,inactive: 0.096,inactive: 0.041,inactive: 0.001,inactive: 0.01,inactive: -0.056
ATL3 (UniProt Q6DD88),inactive: 0.025,inactive: 0,inactive: -0.064,inactive: -0.029,inactive: 0.026,inactive: -0.02,inactive: -0.025,inactive: 0.009,inactive: -0.017,inactive: -0.004
ATP5MG (UniProt O75964),inactive: 0.088,inactive: 0.003,inactive: 0.066,inactive: -0.013,inactive: -0.001,inactive: 0.008,inactive: -0.064,inactive: -0.075,inactive: -0.023,inactive: -0.009
ASF1B (UniProt Q9NVP2),inactive: -0.143,inactive: -0.375,inactive: -0.03,inactive: 0.003,inactive: -0.15,,inactive: -0.036,,inactive: 0.05,inactive: 0.085
ARL5B (UniProt Q96KC2),inactive: 0.03,inactive: -0.017,inactive: -0.009,inactive: 0,inactive: -0.072,,inactive: -0.06,,inactive: -0.07,inactive: 0
ARL5A (UniProt Q9Y689),inactive: 0.163,inactive: 0.042,inactive: 0.009,inactive: -0.006,,inactive: -0.071,inactive: 0.075,inactive: 0.127,,inactive: -0.015
ATG101 (UniProt Q9BSB4),inactive: 0.027,inactive: -0.028,inactive: 0.026,inactive: 0.014,inactive: -0.092,inactive: -0.082,inactive: -0.059,inactive: 0.053,inactive: 0.056,inactive: 0.144
ATP6V0C (UniProt P27449),inactive: 0.067,inactive: -0.261,inactive: 0.087,inactive: 0.213,inactive: -0.121,,inactive: 0.004,,inactive: 0.026,inactive: 0.34
ATP5IF1 (UniProt Q9UII2),inactive: -0.111,inactive: 0.111,,inactive: -0.014,inactive: 0.046,inactive: -0.011,inactive: 0.011,inactive: -0.063,active: -0.244,inactive: -0.039
ATG7 (UniProt O95352),inactive: 0.012,inactive: -0.002,inactive: -0.121,inactive: -0.003,inactive: -0.017,inactive: -0.017,inactive: 0.036,inactive: 0.04,inactive: -0.007,inactive: 0.04
ARSA (UniProt P15289),inactive: -0.032,inactive: 0.06,inactive: -0.07,inactive: 0.001,inactive: -0.079,,inactive: -0.035,,inactive: 0.066,inactive: -0.058
ATL2 (UniProt Q8NHH9),inactive: -0.032,inactive: 0.05,,inactive: 0.005,inactive: 0.008,inactive: 0.019,inactive: 0.035,inactive: 0.005,inactive: 0.008,inactive: 0.047

# Some values from the list:
# In log2 fold change (rucaparib), ATP23 (UniProt Q9Y6H3) has inactive: 0.096
# In log2 fold change [1], ARL5B (UniProt Q96KC2) has inactive: 0

# Rewritten as tab-separated lines: part of the list above.
Target	log2 fold change (saracatinib)	log2 fold change (sotrastaurin)	log2 fold change (alvocidib)	log2 fold change [1]	log2 fold change (defactinib)	log2 fold change (rucaparib)	log2 fold change [2]	log2 fold change (encorafenib)	log2 fold change [3]	log2 fold change (Tubastatin A)
ARMC8 (UniProt Q8IUR7)	inactive: -0.05	inactive: -0.07		inactive: 0.016	inactive: -0.005	inactive: 0.017	inactive: 0.228	inactive: 0.026	inactive: -0.031	inactive: 0.009
ATG12 (UniProt O94817)	inactive: -0.013	inactive: -0.012	inactive: -0.063	inactive: 0.039	inactive: -0.007	inactive: 0.05	inactive: -0.011	inactive: -0.004	inactive: -0.017	inactive: 0.043
